Assay results: publication PMC13284301
Changes are numbered by the printed parent chain. Results are given in words; binding and its absence hold for the method and conditions named. In cells and extracts the contact can be indirect. Some results given as binding are weak or reduced against the parent protein; the word gives no strength. Tags and fused reporters may be left off the sequences shown. One block for each molecule: values may come before it.

Protein sequences, listed by entry. Tags and fused reporters are not part of them. Lines headed by an entry give the natural chain unless they say otherwise; changes in a name come on top.
UniProt P41376: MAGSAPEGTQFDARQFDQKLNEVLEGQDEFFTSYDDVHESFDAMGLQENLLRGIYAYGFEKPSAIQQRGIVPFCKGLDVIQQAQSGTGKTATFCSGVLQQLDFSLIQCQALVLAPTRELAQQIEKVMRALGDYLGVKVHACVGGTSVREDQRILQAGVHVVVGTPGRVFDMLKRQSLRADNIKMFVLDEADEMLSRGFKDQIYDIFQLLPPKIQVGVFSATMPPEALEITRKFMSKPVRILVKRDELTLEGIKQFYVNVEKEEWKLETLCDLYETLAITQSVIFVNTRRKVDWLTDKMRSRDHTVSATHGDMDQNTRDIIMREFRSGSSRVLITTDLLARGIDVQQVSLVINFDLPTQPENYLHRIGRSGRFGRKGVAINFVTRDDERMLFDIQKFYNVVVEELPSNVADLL
UniProt P41377: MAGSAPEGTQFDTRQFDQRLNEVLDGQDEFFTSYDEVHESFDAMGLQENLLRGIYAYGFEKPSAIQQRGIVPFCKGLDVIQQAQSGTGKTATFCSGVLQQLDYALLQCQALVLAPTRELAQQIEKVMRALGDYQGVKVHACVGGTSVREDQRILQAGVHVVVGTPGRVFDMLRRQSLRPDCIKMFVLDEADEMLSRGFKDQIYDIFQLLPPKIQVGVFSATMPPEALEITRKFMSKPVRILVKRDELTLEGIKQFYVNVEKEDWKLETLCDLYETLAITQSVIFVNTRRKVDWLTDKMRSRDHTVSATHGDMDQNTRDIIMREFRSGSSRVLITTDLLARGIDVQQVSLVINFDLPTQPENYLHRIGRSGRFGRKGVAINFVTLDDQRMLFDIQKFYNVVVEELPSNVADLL

Experiments:
[1] = biological target: T1, SMG7-YFP (Arabidopsis thaliana) (UniProt A9QM73); experiment: FRET or BRET; FLIM-FRET, YFP on SMG7 as donor and TagRFP on eIF4A as acceptor, transiently expressed in N. tabacum leaf epidermal cells; shortening of the YFP fluorescence lifetime
T1 sequence: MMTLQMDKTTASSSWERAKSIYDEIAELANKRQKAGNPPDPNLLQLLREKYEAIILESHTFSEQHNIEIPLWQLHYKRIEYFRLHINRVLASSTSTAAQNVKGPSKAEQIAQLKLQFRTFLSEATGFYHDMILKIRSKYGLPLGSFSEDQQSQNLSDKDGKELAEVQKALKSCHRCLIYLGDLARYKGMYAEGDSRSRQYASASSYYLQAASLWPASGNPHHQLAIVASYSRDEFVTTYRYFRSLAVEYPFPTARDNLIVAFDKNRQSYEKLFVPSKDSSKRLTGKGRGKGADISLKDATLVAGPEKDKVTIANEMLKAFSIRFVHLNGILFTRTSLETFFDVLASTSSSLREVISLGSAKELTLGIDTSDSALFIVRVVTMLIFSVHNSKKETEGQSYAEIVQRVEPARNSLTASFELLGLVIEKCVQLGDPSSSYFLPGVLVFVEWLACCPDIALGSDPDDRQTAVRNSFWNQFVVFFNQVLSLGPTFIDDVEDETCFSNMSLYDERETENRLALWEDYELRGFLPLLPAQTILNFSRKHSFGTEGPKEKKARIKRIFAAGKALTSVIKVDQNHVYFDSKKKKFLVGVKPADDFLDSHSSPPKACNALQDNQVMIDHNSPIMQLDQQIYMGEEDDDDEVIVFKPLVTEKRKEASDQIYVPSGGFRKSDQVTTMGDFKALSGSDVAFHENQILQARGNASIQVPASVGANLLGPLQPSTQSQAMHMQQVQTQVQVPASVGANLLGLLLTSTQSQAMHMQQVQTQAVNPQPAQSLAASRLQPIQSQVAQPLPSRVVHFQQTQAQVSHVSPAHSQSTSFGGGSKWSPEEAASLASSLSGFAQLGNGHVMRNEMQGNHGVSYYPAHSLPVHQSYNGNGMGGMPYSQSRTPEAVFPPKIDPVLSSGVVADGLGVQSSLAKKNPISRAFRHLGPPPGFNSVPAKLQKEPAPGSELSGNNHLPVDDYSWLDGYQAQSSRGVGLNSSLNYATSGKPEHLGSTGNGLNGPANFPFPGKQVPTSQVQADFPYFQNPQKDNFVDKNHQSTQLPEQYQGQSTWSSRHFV

[2] = biological target: T2, YFP-SMG7^(K77E R185E) (Arabidopsis thaliana) (UniProt A9QM73); experiment: as above
T2 sequence: T1 sequence with K77E, R185E

[3] = biological target: eIF4A1-YFP (Arabidopsis thaliana) (UniProt P41376); experiment: co-IP; GFP-Trap Magnetic Agarose on extracts of leaves and inflorescences of SMG7-MYC, eIF4A1-YFP and SMG7-MYC eIF4A1-YFP plants; 50 mM Tris-HCl pH 7.5, 150 mM NaCl, 0.1% Nonidet P-40, 10% glycerol, 4 °C; blots with anti-MYC and anti-GFP
[4] = biological target: T3, nYFP-SMG7 (Arabidopsis thaliana) (UniProt A9QM73); experiment: split reporter; BiFC in transfected Arabidopsis mesophyll protoplasts, nYFP on SMG7 and cYFP on the partner, imaged by confocal microscopy after 16 h
T3 sequence: T1 sequence

Molecule: eIF4A1^S146A (from UniProt P41376 1-412)
binding [1]: binds

Molecule: eIF4A1-TagRFP (from UniProt P41376 1-412)
binding [1]: binds
binding [2]: no binding

B1: SMG7-MYC (protein, UniProt A9QM73 1-1059)
chain: T1 sequence
binding [3]: binds

B2: eIF4B1-cYFP (protein, UniProt Q9LIN5 1-532)
chain: MSKAWGGIGIGAWADEAERADEEQAAEATAATADTQSFPSLREAAAATATSGKSRKMKKMSLSEFTTGAYTAPGGRNSVGLTQQEILQLPTGPRQRSEEEMQPGRLGGGFSSYGGRSGGRIGRDRDDSDGSWSGGGGGGGRRPYGGGFDDDRRGNQSRVSDFPQPSRADEVDDWGKEKKPLPSFDQGRQGRYSGDGGGFGGGGSGFGGGGGGGGGGLSRADDVDNWGAGKRQAPVRSSTFGSSFGDSGQEERRRLVLEPRKVESGGSETPPVVEKTSKPNPFGAARPREDVLAEKGLDWKKIDSEIEAKKGSSQTSRPTSAHSSRPSSAQSNRSESSGLNNVVKPRPKVNPFGDAKPREVLLEEQGKDWRKMDLELEHRRVDRPETEEEKMLKEEIEELRKKLEKESVAPEIKESDQEPGSNNNHNDLPEIIRGKEKDLEILTRELDDKVRFRQKPVERPGSGAGRTGTYSERTHSRAGSIDETRSFESTERPRSRGAVDAWVRPANEQRRNFQGTKERGFFSNRSSSREGW
binding [4]: no binding

Second part, the molecule after the results:

binding [1]: no binding
Molecule: eIF4A1^(T145A S146A) (from UniProt P41376 1-412)

binding [1]: binds
binding [2]: no binding
Molecule: eIF4A2-TagRFP (from UniProt P41377 1-412)
